According to the supplement of paper PMC10849652:
This is one part of the list.

Protein sequences, listed by entry. Tags and fused reporters are not part of them. Lines headed by an entry give the natural chain unless they say otherwise; changes in a name come on top.
UniProt O75600: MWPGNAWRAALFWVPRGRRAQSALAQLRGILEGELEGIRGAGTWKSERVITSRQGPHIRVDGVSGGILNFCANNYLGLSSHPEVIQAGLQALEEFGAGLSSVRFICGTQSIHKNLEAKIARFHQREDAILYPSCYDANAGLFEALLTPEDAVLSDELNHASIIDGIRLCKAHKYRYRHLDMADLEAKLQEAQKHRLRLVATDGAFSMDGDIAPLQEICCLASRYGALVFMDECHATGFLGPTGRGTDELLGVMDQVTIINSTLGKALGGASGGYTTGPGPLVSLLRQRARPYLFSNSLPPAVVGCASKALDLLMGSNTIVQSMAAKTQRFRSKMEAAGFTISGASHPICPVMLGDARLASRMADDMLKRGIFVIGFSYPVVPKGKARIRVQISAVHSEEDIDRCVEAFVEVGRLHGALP
UniProt P04062: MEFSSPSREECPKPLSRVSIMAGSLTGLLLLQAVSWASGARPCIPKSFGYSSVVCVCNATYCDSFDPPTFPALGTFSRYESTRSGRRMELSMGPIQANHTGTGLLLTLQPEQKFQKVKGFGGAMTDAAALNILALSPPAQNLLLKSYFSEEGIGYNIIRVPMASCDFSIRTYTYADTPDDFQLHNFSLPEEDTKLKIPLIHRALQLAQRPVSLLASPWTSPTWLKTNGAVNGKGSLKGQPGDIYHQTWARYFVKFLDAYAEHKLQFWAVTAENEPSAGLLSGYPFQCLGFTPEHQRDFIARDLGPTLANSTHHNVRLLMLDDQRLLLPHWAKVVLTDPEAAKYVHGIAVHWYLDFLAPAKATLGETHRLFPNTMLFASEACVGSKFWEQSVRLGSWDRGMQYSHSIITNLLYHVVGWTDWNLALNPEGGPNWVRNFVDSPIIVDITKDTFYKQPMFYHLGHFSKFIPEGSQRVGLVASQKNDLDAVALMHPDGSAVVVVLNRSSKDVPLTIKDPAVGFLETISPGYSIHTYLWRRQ
UniProt P15976: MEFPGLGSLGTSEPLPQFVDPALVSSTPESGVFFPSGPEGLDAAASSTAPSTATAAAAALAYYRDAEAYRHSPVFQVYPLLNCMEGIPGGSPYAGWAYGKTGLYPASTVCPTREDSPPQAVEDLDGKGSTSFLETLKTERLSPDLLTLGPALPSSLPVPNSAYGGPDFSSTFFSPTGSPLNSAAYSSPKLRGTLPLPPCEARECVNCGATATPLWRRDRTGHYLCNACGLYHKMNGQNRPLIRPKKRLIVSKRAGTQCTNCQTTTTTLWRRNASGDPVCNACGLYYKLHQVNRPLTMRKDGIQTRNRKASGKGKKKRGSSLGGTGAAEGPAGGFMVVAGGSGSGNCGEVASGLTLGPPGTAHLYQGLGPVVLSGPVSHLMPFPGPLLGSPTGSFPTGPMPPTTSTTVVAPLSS
UniProt P34059: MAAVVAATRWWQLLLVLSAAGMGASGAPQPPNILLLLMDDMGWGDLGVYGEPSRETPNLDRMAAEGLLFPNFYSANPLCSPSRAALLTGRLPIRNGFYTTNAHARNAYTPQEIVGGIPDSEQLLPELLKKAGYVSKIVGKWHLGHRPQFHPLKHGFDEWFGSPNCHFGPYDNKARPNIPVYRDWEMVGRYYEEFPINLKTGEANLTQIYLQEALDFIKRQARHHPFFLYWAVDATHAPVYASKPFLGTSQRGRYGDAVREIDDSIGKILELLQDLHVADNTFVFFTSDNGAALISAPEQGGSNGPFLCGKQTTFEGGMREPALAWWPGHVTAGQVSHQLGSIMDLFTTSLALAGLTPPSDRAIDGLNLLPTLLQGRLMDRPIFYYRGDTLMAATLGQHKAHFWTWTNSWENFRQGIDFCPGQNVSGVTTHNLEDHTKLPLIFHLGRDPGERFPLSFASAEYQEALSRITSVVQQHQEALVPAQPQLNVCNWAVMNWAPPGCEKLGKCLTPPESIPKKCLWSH
UniProt Q9H3K2: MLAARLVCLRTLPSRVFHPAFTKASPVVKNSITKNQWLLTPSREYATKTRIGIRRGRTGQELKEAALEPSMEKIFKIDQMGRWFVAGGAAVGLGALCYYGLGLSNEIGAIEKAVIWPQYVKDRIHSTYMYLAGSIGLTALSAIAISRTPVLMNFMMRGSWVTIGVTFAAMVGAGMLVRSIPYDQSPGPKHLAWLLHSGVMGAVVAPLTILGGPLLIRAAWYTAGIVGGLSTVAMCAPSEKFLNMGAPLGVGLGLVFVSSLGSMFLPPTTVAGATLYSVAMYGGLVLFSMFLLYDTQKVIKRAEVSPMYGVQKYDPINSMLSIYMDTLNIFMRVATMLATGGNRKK
UniProt O14976: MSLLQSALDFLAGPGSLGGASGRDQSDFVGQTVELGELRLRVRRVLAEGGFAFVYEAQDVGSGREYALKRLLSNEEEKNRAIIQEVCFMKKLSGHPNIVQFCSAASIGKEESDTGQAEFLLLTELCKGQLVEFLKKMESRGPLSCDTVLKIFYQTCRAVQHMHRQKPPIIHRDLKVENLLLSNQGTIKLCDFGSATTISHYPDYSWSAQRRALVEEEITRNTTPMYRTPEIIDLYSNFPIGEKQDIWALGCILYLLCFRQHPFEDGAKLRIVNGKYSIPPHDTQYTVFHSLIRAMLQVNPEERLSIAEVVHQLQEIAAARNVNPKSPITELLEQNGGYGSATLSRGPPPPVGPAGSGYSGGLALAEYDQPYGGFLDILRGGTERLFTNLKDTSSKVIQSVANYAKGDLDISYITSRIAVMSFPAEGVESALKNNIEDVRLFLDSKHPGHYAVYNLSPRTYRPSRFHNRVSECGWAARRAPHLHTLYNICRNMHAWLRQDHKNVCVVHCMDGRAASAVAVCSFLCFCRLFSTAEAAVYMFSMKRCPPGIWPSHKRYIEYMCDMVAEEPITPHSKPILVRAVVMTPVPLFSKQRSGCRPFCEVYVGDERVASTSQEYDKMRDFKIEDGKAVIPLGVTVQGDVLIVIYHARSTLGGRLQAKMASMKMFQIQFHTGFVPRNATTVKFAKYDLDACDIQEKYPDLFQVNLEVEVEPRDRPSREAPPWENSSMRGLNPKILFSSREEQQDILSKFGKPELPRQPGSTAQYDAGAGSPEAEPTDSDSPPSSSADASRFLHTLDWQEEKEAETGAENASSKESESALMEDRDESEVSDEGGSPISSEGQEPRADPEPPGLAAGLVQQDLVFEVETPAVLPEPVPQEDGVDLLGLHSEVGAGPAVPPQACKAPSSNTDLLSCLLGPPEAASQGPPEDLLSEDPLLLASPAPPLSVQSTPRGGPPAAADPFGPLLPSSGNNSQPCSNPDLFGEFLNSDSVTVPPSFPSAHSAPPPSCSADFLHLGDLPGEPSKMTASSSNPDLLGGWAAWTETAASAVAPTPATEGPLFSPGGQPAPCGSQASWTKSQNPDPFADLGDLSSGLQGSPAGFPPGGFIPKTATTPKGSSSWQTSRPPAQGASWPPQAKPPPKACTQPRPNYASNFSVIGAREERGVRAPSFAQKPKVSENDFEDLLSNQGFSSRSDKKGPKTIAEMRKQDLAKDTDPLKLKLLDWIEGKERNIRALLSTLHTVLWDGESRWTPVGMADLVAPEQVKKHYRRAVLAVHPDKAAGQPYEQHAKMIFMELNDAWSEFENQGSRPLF
UniProt Q9H0R8, whole entry, looked up: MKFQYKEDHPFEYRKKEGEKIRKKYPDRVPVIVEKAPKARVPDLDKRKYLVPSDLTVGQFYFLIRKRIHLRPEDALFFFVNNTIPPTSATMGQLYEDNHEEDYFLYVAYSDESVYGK
UniProt Q8TB36: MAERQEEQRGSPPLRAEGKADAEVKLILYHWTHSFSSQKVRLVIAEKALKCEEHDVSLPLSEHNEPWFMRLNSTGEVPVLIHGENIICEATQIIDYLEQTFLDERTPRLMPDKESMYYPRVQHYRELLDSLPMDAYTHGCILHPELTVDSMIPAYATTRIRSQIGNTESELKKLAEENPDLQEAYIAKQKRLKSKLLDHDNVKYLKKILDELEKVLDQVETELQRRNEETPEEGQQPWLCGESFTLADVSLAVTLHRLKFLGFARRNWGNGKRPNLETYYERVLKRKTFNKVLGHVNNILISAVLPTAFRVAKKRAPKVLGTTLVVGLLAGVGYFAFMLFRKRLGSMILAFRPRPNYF
UniProt P48506: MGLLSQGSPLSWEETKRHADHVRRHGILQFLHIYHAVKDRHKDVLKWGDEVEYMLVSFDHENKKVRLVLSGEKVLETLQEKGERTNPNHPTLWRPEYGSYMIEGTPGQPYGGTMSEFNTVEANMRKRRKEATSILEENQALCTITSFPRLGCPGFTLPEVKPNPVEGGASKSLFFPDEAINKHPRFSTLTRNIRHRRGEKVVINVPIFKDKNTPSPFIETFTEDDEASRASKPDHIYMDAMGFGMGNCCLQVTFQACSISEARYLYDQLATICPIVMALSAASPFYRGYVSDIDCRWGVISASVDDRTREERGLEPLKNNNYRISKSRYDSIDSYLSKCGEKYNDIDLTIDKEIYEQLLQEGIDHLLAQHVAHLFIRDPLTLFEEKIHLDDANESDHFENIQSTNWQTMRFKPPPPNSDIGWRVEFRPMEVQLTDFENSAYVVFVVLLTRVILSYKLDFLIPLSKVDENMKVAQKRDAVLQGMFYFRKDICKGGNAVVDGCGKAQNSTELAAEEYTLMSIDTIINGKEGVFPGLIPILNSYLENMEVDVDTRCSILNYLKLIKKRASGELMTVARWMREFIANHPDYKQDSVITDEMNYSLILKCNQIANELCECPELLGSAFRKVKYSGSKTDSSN
UniProt Q9UN86: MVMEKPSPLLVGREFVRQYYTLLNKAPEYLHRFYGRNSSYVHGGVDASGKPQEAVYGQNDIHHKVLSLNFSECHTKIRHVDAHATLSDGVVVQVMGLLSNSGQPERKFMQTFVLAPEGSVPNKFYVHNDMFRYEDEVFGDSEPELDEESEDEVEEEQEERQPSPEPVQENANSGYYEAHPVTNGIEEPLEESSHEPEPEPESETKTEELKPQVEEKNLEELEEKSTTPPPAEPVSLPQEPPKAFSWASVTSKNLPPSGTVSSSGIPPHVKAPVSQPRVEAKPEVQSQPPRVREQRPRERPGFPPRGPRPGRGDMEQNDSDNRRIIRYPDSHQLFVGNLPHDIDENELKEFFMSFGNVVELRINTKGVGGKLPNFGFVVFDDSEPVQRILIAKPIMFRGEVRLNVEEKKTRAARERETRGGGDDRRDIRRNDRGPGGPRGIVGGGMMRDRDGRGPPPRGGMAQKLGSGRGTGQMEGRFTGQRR
UniProt P51116, whole entry, looked up: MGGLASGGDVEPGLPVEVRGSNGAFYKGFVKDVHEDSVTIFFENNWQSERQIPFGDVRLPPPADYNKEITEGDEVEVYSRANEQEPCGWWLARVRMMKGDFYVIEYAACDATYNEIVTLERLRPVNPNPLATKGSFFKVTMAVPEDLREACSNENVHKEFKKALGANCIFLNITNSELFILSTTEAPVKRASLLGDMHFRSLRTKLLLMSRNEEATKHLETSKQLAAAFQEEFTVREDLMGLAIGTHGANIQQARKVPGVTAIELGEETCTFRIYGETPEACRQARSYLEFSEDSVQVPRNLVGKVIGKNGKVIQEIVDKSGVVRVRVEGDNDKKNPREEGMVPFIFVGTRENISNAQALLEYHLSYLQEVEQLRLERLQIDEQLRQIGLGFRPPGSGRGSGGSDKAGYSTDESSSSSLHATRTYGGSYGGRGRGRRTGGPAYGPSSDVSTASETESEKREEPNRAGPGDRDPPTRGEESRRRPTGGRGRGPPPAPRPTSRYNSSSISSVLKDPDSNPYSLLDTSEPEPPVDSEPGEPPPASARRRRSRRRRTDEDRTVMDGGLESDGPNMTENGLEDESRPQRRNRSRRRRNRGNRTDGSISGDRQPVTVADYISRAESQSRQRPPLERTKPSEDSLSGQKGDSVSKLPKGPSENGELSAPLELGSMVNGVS
UniProt Q9BTY2: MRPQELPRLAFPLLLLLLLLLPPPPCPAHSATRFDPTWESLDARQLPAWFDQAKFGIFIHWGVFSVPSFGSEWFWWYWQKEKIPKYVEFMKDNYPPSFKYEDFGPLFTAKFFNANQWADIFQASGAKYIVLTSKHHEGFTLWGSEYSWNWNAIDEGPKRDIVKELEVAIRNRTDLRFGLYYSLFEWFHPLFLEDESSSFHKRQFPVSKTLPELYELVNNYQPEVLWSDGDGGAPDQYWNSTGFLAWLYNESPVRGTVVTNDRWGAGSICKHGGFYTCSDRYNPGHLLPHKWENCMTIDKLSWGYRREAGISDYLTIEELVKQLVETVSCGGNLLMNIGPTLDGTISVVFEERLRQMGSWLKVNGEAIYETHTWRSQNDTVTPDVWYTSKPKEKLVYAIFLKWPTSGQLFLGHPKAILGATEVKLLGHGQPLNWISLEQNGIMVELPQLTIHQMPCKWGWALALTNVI

Compound: CON(C)C(=O)N1N=C(c2cc(F)ccc2F)S[C@@]1(CCCN)c1ccccc1 [filanesib]
Experiment: log2 fold change, soluble protein after heating vs DMSO (PISA); higher = thermal stabilisation; K562 cells, 10 uM, 30 min; active = over 0.2 and 3.5 SD of the protein, either way, in both replicates (recomputed)
Outline: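 K562 cells (2×10^6 cells/mL) were treated with 10 μM compound for 30 min, and aliquots were heated for 3 min over 48°C-58°C. Pooled aliquots were extracted in PBS with 0.5% NP-40 at 4°C, and the supernatant after 21,000xg for 90 min was measured by TMTpro 16plex LC-MS/MS with channel sums equalised. Reported thermal stability, relative to control samples and from duplicates, is a log2 fold change.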

log2 fold change, inactive:
GALE (UniProt Q14376) -0.056
GALC (UniProt P54803) -0.017
GCAT isoform 2 (UniProt O75600) -0.132
GBA (UniProt P04062) 0.042
GATA1 (UniProt P15976) 0.001
GGNBP2 (UniProt Q9H3C7) -0.046
GALNS (UniProt P34059) -0.094
GHITM (UniProt Q9H3K2) -0.072
GATAD2A isoform 3 (UniProt Q86YP4) 0.117
GAK (UniProt O14976) 0.024
FSCN1 (UniProt Q16658) -0.055
GADD45GIP1 (UniProt Q8TAE8) 0.108
GART (UniProt C9JZG2) -0.03
GCN1 (UniProt Q92616) 0.535
GABARAPL1 isoform 2 (UniProt Q9H0R8) -0.054
FRG1 (UniProt Q14331) 0.207
GDAP1 (UniProt Q8TB36) -0.014
GCLC (UniProt P48506) -0.064
G3BP2 (UniProt Q9UN86) 0.293
GFPT1 (UniProt Q06210) -0.072
FUT11 (UniProt Q495W5) 0.035
FXR2 (UniProt P51116) 0.04
FUCA2 (UniProt Q9BTY2) 0.002

A run of entries from the list above, for reference:
log2 fold change, inactive:
G3BP2 (UniProt Q9UN86) 0.293
GFPT1 (UniProt Q06210) -0.072
FUT11 (UniProt Q495W5) 0.035
FXR2 (UniProt P51116) 0.04
